Measurements from the supplement of paper PMC10849652.
Some of the results follow.

By UniProt entry, the sequences of proteins in these tests, tags left out. Where a name states a change or a piece, a line headed by the entry shows the natural chain unless it says otherwise.
UniProt Q9NXR8, whole entry, looked up: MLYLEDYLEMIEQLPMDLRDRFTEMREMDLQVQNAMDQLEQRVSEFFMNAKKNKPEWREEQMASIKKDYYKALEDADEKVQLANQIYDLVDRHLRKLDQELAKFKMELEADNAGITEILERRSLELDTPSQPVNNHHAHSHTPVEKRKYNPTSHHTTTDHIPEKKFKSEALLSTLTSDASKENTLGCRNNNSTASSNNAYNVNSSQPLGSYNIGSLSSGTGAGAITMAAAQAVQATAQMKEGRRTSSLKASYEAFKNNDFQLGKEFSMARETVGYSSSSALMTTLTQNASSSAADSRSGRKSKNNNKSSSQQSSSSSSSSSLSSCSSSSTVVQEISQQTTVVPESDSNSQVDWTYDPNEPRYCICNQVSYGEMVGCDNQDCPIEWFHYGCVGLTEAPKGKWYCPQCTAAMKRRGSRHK
UniProt Q8N6C5: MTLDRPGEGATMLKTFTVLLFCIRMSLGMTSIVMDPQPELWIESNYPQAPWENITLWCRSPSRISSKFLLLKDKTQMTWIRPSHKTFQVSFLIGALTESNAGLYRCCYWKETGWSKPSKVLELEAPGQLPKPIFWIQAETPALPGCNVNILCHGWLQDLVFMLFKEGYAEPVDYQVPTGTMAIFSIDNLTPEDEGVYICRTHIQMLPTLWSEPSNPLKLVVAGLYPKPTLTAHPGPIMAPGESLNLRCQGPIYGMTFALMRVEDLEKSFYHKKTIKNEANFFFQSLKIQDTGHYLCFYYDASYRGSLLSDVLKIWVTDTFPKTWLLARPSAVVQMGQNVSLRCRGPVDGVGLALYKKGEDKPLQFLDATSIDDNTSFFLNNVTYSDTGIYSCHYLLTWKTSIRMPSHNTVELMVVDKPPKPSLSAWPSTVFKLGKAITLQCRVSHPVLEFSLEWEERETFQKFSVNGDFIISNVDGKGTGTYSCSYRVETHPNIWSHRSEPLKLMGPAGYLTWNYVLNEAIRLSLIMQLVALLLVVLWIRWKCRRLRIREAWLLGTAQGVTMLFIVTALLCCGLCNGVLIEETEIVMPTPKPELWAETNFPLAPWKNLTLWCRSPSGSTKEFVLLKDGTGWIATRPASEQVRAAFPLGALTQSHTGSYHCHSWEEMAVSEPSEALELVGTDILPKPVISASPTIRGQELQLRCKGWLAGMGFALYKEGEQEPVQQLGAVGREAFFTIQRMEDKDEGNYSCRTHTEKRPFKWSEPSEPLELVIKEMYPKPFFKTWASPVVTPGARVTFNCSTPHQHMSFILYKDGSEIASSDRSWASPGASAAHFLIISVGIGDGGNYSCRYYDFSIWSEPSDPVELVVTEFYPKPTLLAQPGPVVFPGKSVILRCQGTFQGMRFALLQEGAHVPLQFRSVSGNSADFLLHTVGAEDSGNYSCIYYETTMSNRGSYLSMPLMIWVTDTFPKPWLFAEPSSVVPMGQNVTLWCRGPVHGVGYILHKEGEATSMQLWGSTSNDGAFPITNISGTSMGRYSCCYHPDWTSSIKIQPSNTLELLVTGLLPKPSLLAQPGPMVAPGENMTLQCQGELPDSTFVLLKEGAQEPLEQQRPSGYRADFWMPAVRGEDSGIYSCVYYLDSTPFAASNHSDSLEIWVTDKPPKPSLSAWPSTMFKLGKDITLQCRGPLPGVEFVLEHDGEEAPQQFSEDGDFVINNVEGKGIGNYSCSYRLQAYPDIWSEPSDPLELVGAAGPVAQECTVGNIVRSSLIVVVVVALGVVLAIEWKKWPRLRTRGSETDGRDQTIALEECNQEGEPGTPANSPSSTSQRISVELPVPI
UniProt P31785: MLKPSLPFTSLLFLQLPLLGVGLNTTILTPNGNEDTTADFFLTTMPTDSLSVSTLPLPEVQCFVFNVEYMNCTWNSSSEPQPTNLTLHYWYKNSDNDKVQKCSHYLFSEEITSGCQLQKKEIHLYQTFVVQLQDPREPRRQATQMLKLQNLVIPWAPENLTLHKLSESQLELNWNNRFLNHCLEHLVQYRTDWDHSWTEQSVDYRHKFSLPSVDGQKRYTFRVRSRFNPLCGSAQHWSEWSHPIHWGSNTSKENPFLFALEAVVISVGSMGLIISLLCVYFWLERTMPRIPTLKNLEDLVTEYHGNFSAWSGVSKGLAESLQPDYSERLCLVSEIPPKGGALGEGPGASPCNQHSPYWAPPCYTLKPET
UniProt P14316: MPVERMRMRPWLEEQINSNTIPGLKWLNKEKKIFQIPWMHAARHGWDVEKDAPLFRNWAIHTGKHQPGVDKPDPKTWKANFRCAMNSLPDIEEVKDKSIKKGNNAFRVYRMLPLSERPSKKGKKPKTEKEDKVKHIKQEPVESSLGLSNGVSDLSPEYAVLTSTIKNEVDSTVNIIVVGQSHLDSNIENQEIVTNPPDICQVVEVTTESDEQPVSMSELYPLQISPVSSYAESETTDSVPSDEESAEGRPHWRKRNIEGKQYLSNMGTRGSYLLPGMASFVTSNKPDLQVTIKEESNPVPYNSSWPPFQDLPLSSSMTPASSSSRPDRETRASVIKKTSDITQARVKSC
UniProt Q9NRY2: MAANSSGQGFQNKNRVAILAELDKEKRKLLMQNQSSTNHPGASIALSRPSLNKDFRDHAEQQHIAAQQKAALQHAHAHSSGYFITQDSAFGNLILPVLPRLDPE
UniProt P0DMQ5: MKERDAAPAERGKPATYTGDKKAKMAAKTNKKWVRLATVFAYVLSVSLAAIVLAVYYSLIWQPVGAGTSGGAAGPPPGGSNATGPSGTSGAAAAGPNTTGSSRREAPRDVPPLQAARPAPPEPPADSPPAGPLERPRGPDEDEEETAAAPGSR
UniProt Q8IY31, whole entry, looked up: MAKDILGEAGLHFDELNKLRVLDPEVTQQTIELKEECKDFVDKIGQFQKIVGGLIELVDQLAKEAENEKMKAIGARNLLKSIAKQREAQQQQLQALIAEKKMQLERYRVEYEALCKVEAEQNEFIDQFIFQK
UniProt P01344, whole entry, looked up: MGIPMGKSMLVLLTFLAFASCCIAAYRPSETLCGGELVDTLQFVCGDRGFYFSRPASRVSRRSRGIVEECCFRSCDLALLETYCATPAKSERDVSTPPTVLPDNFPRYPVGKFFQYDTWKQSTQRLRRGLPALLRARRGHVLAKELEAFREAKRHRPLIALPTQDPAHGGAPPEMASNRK
UniProt Q96F46, whole entry, looked up: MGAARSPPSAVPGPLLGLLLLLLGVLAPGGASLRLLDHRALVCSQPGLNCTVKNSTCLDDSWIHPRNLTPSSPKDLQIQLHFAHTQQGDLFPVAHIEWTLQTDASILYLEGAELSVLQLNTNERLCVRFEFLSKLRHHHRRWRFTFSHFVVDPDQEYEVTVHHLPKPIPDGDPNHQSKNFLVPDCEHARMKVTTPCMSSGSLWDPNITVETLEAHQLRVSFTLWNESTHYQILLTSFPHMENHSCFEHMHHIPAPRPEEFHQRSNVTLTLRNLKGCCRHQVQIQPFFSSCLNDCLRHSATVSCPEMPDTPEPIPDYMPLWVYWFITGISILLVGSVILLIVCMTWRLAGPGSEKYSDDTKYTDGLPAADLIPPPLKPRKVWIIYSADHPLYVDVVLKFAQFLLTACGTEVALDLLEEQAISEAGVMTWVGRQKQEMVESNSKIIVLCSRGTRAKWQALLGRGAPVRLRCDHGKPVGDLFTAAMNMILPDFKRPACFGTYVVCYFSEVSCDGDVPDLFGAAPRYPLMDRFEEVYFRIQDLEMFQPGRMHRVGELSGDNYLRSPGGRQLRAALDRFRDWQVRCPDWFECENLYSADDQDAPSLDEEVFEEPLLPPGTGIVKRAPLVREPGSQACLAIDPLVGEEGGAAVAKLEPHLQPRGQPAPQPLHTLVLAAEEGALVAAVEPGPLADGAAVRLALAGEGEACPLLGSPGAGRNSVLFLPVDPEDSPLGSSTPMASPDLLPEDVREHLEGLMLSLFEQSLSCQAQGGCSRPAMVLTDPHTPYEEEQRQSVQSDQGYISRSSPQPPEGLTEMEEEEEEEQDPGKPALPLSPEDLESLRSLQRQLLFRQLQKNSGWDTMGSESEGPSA
UniProt Q14573, whole entry, looked up: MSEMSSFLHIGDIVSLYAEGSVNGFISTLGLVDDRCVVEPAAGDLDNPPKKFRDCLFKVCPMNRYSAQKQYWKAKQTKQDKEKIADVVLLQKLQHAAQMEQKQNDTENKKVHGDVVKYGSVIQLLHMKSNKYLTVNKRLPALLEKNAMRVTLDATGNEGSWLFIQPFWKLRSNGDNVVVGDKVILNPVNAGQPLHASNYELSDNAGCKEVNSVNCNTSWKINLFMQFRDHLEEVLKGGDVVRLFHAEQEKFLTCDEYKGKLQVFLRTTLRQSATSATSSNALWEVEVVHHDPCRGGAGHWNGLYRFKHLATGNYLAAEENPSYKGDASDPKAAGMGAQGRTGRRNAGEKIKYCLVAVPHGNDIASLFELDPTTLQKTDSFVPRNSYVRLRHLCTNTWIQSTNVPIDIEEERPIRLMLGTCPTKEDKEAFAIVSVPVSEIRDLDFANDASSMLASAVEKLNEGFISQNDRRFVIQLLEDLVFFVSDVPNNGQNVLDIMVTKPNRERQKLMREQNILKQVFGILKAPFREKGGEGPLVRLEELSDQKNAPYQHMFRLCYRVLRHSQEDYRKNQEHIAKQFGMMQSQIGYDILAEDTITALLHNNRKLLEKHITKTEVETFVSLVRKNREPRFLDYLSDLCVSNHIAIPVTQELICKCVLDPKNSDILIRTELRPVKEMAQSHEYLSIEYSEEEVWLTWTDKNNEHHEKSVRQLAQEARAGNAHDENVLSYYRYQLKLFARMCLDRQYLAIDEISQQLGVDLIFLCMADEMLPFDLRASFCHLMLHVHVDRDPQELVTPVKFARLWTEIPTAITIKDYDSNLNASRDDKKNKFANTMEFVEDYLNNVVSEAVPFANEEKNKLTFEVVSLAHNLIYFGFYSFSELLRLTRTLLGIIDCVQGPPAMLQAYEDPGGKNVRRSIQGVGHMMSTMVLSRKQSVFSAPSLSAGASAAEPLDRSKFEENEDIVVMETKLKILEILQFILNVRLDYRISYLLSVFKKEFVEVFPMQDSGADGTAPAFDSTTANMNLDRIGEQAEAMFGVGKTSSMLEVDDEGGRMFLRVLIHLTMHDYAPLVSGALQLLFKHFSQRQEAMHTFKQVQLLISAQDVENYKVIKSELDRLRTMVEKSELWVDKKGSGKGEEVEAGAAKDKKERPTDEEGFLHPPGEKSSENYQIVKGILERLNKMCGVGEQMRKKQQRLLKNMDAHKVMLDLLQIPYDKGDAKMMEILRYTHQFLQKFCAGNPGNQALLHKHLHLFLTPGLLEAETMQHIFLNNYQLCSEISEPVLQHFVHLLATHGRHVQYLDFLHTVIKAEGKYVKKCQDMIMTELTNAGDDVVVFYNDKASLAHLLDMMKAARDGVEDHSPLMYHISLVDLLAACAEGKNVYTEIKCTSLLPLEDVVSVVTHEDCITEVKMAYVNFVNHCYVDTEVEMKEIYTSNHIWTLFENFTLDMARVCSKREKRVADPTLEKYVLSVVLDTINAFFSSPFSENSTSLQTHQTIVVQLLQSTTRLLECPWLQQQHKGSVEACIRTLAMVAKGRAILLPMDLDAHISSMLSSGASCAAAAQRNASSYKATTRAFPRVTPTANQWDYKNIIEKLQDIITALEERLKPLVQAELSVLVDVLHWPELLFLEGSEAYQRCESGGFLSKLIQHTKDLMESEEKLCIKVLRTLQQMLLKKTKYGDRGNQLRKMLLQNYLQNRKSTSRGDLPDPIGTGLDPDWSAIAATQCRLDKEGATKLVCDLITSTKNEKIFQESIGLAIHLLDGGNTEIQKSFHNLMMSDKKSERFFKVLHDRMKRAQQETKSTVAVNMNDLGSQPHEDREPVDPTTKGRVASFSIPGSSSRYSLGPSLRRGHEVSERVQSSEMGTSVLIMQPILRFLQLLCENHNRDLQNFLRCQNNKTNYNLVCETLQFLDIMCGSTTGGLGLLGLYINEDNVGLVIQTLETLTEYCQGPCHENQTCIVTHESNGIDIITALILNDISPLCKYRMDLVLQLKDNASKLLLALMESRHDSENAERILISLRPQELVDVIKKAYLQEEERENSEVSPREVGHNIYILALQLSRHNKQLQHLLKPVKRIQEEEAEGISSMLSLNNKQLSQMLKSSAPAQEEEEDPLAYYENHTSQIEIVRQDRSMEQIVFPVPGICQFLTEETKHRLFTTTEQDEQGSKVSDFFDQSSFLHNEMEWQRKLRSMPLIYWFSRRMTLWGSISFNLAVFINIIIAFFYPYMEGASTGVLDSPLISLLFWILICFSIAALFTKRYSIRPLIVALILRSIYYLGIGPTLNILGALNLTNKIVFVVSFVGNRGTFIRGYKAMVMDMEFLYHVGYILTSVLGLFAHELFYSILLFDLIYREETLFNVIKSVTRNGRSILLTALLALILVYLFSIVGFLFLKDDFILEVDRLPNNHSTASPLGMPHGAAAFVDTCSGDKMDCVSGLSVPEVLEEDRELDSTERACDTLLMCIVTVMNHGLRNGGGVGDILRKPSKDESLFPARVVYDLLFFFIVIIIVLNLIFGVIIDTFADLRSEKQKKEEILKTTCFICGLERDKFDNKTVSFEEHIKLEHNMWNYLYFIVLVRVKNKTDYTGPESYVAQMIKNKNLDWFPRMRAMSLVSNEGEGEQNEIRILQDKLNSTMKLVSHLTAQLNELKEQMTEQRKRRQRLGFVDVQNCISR

Experiments:
Assay in all cases: log2 fold change, soluble protein after heating vs DMSO (PISA); higher = thermal stabilisation; K562 cells, 10 uM, 30 min; active = over 0.2 and 3.5 SD of the protein, either way, in both replicates (recomputed)
sotrastaurin = compound: CN1CCN(c2nc(C3=C(c4c[nH]c5ccccc45)C(=O)NC3=O)c3ccccc3n2)CC1 [sotrastaurin]
In short: (§1)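 Soluble protein was defined as the supernatant after 21,000xg for 90 min. It came from K562 cells at 2×10^6 cells/mL given 10 μM compound for 30 min, heated in aliquots for 3 min across 48°C-58°C, pooled, and extracted in PBS with 0.5% NP-40 at 4°C, and was quantified by TMTpro 16plex LC-MS/MS with equalised channel sums. Thermal stability against control samples, from duplicates, is reported as log2 fold change.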

[1] = compound: CNC(=O)C1=CC=CC=C1NC2=NC(=NC=C2Cl)NC3=C(C=C(C=C3)N4CCOCC4)OC
In short: as §1

defactinib = compound: CNC(=O)c1ccc(Nc2ncc(C(F)(F)F)c(NCc3nccnc3N(C)S(C)(=O)=O)n2)cc1 [defactinib]
In short: as §1

rucaparib = compound: CNCc1ccc(-c2[nH]c3cc(F)cc4c3c2CCNC4=O)cc1 [rucaparib]
In short: as §1

encorafenib = compound: COC(=O)N[C@@H](C)CNc1nccc(-c2cn(C(C)C)nc2-c2cc(Cl)cc(NS(C)(=O)=O)c2F)n1 [encorafenib]
In short: as §1

[2] = compound: COC(=O)[C@H](CCSC)NC(=O)C1=C(C=C(C=C1)NC[C@H](CS)N)C2=CC=CC=C2
In short: as §1

Tubastatin A = compound: CN1CCc2c(c3ccccc3n2Cc2ccc(C(=O)NO)cc2)C1 [Tubastatin A]
In short: as §1

alvocidib = compound: CN1CC[C@H](c2c(O)cc(O)c3c(=O)cc(-c4ccccc4Cl)oc23)[C@H](O)C1 [alvocidib]
In short: as §1

saracatinib = compound: CN1CCN(CCOc2cc(OC3CCOCC3)c3c(Nc4c(Cl)ccc5c4OCO5)ncnc3c2)CC1 [saracatinib]
In short: as §1

[3] = compound: CNc1nc(-c2ccc3c(N)n[nH]c3c2)cc(N2C[C@@H](C(=O)NC3CCCCC3)CC[C@H]2C)n1
In short: as §1

Measured: log2 fold change

INHBE (UniProt P58166)
inactive: sotrastaurin 0.097 | [1] 0 | defactinib 0.11 | rucaparib -0.239 | encorafenib 0.105 | [2] 0.077

IKZF1 isoform 2 (UniProt Q13422)
inactive: sotrastaurin 0.049 | Tubastatin A -0.123 | [1] 0.05 | defactinib -0.106 | [2] -0.02

INTS2 (UniProt Q9H0H0)
inactive: sotrastaurin -0.227 | alvocidib -0.487 | Tubastatin A 0.02 | [1] -0.068 | defactinib -0.044 | rucaparib 0.197 | encorafenib -0.015 | [2] -0.125

IFT27 (UniProt Q9BW83)
inactive: saracatinib 0.074 | alvocidib -0.098 | [1] -0.042 | [3] -0.268

IDH3A isoform 2 (UniProt P50213)
inactive: Tubastatin A 0.138 | [1] -0.117

ING3 (UniProt Q9NXR8)
inactive: rucaparib -0.105 | encorafenib -0.027

ISL2 (UniProt H0YN25)
inactive: saracatinib -0.157 | [3] 0.07

INO80E (UniProt Q8NBZ0)
inactive: Tubastatin A 0.058 | [1] 0.062 | rucaparib -0.008 | encorafenib -0.101

IL23R (UniProt Q5VWK5)
inactive: saracatinib -0.427 | alvocidib 0.233 | Tubastatin A 0.003 | defactinib 0.15 | [3] 0.151 | [2] -0.113

IGSF1 isoform 4 (UniProt Q8N6C5)
inactive: rucaparib 0 | encorafenib 0.005

2 consecutive entries out of the list so far, for reference:
IL23R (UniProt Q5VWK5)
inactive: saracatinib -0.427 | alvocidib 0.233 | Tubastatin A 0.003 | defactinib 0.15 | [3] 0.151 | [2] -0.113

IGSF1 isoform 4 (UniProt Q8N6C5)
inactive: rucaparib 0 | encorafenib 0.005

(next part)

IL2RG (UniProt P31785)
inactive: alvocidib 0.091 | Tubastatin A -0.011 | defactinib 0.023 | [2] 0.039

ILF3 (UniProt Q12906)
inactive: sotrastaurin 0.009 | rucaparib 0.384 | encorafenib 0.081

IKZF1 (UniProt R9R4D9)
inactive: saracatinib 0.019 | Tubastatin A -0.158 | [3] -0.038

ITPR1 (UniProt Q14643)
inactive: alvocidib -0.011 | [1] -0.003

ITGB3BP isoform 5 (UniProt Q13352)
inactive: [1] -0.045

IRF2 (UniProt P14316)
inactive: sotrastaurin -0.097 | alvocidib 0.111 | Tubastatin A 0.1 | [1] -0.092 | defactinib -0.149 | [2] -0.004

ITIH1 (UniProt P19827)
inactive: [1] 0.05 | rucaparib -0.017 | encorafenib 0.034

IMPDH2 (UniProt H0Y4R1)
inactive: Tubastatin A 0.144 | [1] 0.04 | defactinib 0.004 | [2] -0.009

IGFBP6 (UniProt P24592)
inactive: saracatinib 0.011 | defactinib 0.144 | [3] -0.094 | [2] 0.055

INIP (UniProt Q9NRY2)
inactive: sotrastaurin 0.035 | defactinib -0.073 | rucaparib -0.142 | encorafenib -0.031 | [2] -0.022

INTS12 (UniProt Q96CB8)
inactive: saracatinib -0.101 | alvocidib 0.021 | Tubastatin A 0.149 | defactinib -0.224 | [3] -0.035 | [2] 0.005

IGLC3 (UniProt P0DOY3)
inactive: rucaparib -0.078 | encorafenib -0.175

ISL2 (UniProt Q96A47)
inactive: alvocidib 0.003 | rucaparib 0.147 | encorafenib 0.029

INAFM2 (UniProt P0DMQ5)
inactive: sotrastaurin 0.011 | alvocidib -0.028 | Tubastatin A 0.075 | [1] -0.068 | rucaparib 0.047 | encorafenib -0.046

IQSEC2 (UniProt Q5JU85)
inactive: saracatinib -0.516 | alvocidib 0 | rucaparib 0.111 | [3] 0.012 | encorafenib -0.102

IGFBP5 (UniProt P24593)
inactive: sotrastaurin 0.228 | Tubastatin A -0.183 | [1] -0.032 | defactinib 0.249 | [2] 0.065

IFT20 isoform 2 (UniProt Q8IY31)
inactive: sotrastaurin -0.119 | [1] 0.137 | rucaparib -0.019 | encorafenib 0.081

ING1 (UniProt Q9UK53)
inactive: sotrastaurin 0.07 | alvocidib -0.063 | Tubastatin A -0.056 | rucaparib 0.366 | encorafenib -0.019

IGF2 isoform 3 (UniProt P01344)
inactive: saracatinib 0.148 | [1] -0.033 | defactinib 0.007 | [3] -0.105 | [2] 0.006

ING5 (UniProt Q8WYH8)
inactive: Tubastatin A 0.192 | [1] -0.147 | rucaparib 0.129 | encorafenib -0.078

ITGB1BP1 (UniProt O14713)
inactive: saracatinib -0.086 | Tubastatin A 0.102 | [1] 0.001 | [3] -0.148

IL17RA (UniProt Q96F46)
inactive: sotrastaurin 0.196 | Tubastatin A -0.056

ITPR3 (UniProt Q14573)
inactive: alvocidib -0.045 | defactinib 0 | rucaparib -0.003 | encorafenib -0.134 | [2] 0.213

IGLL5 (UniProt B9A064)
inactive: sotrastaurin 0.123 | Tubastatin A 0.019 | rucaparib -0.304 | encorafenib -0.073

ITPRID2 (UniProt P28290)
inactive: [1] -0.299 | defactinib -0.158 | rucaparib -0.019 | encorafenib -0.087 | [2] 0.059

IGKC (UniProt P01834)
inactive: sotrastaurin -0.123 | Tubastatin A 0.013 | [1] -0.198 | defactinib 0.109 | rucaparib 0.012 | encorafenib -0.121 | [2] -0.001

ING4 (UniProt Q9UNL4)
inactive: saracatinib -0.008 | Tubastatin A -0.233 | [1] 0.209 | [3] 0.046

IRAK1 (UniProt P51617)
inactive: sotrastaurin -0.122 | [1] 0.023 | rucaparib 0.362 | encorafenib 0.11
